The list shows a part of the results.
compound: CN1CC[C@H](c2c(O)cc(O)c3c(=O)cc(-c4ccccc4Cl)oc23)[C@H](O)C1 [alvocidib]; assay: log2 fold change, soluble protein after heating vs DMSO (PISA); higher = thermal stabilisation; K562 cells, 10 uM, 30 min; active = over 0.2 and 3.5 SD of the protein, either way, in both replicates (recomputed)
Procedure, shortened: (§1)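 K562 cells at 2×10^6 cells/mL were exposed to 10 μM compound for 30 min, then aliquots were heated for 3 min across 48°C-58°C, pooled, and extracted in PBS containing 0.5% NP-40 at 4°C. The supernatant after 21,000xg for 90 min was taken as soluble protein and measured by TMTpro 16plex LC-MS/MS with channel sums equalised. Thermal stability is reported relative to control samples, with values from duplicates. Fold changes are given on a log2 scale.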

Protein sequences, listed by entry. Tags and fused reporters are not part of them. Lines headed by an entry give the natural chain unless they say otherwise; changes in a name come on top.
UniProt A6NDG6: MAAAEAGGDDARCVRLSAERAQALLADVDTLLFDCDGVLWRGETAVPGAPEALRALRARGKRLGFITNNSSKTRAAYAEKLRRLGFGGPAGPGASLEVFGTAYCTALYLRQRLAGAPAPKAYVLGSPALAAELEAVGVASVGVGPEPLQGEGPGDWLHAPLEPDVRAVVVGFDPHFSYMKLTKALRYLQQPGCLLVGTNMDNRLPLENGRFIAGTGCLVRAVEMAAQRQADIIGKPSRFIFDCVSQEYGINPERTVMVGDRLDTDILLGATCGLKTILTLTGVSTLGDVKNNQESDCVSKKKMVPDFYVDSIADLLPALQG
UniProt Q9BZM1: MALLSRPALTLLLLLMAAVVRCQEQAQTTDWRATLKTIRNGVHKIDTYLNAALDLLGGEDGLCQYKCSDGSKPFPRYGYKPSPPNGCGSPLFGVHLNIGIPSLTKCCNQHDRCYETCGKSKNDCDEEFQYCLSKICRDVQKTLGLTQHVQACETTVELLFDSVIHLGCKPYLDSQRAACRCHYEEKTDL
UniProt Q99623, whole entry, looked up: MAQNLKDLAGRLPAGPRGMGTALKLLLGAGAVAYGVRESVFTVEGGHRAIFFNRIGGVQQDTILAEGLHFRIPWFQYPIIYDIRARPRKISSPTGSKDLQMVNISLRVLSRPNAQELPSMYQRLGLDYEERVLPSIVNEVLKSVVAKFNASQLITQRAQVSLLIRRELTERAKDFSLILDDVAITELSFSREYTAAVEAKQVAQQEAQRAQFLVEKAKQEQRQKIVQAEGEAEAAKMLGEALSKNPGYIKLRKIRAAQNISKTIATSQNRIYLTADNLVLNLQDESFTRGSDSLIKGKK
PIGBOS1, A0A0B4J2F0, UniProt A0A0B4J2F0, whole entry, looked up: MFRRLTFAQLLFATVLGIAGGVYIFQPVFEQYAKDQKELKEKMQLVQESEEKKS
UniProt P18669: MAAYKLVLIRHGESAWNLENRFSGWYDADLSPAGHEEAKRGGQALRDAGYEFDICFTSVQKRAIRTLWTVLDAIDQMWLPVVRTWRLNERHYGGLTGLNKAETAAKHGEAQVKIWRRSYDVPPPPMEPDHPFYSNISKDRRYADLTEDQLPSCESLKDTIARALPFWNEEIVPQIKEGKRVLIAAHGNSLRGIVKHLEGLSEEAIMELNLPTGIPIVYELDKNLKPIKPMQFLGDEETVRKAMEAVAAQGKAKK
UniProt Q9NRX4: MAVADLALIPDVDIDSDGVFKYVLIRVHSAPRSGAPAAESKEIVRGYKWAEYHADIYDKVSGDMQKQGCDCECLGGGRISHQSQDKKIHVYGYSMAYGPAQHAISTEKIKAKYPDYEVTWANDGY
UniProt P35232: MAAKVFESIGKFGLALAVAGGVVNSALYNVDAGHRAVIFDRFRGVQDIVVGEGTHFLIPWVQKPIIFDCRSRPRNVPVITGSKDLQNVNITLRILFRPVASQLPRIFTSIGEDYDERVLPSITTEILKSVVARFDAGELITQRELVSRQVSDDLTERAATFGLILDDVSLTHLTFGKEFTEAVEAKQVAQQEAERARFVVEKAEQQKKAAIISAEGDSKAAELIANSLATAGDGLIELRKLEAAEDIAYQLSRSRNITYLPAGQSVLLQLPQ
UniProt Q16877: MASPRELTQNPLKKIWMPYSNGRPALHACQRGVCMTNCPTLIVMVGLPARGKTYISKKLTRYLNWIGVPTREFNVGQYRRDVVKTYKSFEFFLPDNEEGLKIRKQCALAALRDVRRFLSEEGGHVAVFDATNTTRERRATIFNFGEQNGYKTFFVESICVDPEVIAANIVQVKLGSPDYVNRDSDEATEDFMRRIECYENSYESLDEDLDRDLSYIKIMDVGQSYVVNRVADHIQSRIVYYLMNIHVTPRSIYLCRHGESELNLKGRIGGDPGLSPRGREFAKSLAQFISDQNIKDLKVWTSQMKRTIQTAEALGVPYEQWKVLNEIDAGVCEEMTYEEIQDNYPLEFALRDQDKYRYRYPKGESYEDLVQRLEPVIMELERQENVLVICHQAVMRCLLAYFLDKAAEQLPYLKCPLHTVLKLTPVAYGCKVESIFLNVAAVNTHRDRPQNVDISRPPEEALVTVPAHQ
UniProt P17858: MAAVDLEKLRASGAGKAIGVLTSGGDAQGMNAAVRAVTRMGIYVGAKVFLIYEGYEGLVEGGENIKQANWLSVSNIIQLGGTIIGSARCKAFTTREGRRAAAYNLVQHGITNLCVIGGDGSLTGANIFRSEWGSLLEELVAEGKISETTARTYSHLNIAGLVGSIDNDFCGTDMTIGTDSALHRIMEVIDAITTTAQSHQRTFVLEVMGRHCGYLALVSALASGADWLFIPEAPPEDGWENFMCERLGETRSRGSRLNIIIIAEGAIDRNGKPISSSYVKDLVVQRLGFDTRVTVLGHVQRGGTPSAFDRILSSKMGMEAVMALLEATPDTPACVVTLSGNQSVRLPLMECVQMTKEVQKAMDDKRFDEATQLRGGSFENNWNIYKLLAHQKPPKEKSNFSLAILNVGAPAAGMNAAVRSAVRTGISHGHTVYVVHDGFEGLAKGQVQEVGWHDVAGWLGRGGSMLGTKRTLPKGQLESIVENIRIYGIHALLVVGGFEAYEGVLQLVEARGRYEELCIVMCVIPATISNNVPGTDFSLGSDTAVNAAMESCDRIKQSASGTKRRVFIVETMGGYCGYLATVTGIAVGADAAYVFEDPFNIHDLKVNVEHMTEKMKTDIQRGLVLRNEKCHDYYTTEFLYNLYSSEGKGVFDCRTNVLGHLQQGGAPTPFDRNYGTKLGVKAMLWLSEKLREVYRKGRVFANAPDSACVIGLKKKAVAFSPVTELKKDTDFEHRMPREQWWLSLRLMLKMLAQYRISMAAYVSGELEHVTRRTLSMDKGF
UniProt Q92576, whole entry, looked up: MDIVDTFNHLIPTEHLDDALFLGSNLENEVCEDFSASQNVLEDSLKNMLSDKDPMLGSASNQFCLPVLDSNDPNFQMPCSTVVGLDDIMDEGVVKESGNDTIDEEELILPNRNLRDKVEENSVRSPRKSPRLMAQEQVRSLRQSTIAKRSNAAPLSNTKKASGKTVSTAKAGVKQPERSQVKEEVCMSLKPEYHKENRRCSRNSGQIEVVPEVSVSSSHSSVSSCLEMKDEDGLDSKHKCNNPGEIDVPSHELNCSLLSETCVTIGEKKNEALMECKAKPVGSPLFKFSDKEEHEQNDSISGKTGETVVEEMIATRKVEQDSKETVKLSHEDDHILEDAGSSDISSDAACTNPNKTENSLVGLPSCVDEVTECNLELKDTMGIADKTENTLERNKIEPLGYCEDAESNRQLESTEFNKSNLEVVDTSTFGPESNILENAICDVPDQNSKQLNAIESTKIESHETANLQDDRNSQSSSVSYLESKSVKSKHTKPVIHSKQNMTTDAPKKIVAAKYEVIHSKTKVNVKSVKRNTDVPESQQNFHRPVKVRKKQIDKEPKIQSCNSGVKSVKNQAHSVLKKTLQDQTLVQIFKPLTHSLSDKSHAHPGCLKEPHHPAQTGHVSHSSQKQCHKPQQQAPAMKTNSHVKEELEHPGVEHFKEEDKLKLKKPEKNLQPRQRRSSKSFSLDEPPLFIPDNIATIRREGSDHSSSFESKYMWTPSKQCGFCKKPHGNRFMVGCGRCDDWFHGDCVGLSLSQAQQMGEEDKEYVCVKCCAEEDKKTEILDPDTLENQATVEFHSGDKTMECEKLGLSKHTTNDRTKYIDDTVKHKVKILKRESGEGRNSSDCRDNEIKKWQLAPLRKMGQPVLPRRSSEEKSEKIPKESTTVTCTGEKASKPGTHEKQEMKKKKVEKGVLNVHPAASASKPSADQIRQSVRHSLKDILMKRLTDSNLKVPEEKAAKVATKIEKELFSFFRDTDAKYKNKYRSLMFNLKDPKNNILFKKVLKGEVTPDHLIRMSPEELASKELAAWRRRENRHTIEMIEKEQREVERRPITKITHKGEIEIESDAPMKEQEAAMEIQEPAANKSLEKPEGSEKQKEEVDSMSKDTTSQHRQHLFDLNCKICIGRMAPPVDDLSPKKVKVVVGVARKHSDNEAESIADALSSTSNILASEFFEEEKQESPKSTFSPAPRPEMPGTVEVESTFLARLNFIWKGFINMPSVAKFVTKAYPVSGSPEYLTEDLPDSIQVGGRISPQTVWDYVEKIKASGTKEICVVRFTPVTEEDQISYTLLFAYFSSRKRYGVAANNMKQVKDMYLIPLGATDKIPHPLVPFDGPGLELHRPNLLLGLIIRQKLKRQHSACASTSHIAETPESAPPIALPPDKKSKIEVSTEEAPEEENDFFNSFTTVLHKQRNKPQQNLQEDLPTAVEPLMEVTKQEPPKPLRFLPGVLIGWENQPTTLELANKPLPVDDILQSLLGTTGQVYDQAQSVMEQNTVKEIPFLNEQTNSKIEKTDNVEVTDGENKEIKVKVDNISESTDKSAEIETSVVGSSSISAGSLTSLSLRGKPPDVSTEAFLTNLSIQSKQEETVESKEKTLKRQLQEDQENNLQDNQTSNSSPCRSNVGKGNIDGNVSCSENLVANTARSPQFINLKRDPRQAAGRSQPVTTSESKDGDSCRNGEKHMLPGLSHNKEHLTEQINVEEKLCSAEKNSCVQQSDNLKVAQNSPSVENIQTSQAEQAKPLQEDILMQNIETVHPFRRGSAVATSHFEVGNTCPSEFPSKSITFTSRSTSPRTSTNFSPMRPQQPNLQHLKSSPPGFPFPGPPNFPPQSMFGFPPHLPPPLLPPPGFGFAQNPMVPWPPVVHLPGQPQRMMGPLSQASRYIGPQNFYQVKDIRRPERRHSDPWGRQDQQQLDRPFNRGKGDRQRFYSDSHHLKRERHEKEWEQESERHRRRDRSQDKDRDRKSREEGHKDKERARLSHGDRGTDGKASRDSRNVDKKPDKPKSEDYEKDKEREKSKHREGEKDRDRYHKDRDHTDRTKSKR
UniProt Q13608: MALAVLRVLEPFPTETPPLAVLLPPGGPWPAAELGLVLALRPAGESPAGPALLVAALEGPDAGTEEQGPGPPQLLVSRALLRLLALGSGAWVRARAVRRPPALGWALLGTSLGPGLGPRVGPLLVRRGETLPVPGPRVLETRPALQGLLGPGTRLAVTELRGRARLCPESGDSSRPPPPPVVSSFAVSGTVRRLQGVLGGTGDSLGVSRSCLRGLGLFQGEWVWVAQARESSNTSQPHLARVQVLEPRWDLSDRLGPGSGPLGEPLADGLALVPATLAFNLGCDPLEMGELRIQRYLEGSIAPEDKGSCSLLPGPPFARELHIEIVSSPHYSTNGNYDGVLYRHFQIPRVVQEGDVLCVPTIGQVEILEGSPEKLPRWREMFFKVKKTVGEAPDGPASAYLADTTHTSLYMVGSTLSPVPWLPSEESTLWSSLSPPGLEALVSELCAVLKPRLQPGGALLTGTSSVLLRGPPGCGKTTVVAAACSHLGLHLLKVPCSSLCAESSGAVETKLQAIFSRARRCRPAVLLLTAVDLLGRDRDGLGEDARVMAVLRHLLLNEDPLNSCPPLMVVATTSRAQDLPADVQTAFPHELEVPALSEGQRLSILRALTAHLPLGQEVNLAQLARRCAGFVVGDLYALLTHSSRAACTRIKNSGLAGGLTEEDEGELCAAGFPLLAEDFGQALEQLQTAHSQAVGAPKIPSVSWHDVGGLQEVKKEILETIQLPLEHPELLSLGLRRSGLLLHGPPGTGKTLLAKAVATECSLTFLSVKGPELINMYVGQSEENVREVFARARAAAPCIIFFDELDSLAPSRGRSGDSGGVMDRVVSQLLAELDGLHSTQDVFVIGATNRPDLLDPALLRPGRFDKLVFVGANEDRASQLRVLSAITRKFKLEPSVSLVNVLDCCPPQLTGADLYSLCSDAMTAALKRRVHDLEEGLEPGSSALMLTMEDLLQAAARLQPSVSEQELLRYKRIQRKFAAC
UniProt Q9Y263: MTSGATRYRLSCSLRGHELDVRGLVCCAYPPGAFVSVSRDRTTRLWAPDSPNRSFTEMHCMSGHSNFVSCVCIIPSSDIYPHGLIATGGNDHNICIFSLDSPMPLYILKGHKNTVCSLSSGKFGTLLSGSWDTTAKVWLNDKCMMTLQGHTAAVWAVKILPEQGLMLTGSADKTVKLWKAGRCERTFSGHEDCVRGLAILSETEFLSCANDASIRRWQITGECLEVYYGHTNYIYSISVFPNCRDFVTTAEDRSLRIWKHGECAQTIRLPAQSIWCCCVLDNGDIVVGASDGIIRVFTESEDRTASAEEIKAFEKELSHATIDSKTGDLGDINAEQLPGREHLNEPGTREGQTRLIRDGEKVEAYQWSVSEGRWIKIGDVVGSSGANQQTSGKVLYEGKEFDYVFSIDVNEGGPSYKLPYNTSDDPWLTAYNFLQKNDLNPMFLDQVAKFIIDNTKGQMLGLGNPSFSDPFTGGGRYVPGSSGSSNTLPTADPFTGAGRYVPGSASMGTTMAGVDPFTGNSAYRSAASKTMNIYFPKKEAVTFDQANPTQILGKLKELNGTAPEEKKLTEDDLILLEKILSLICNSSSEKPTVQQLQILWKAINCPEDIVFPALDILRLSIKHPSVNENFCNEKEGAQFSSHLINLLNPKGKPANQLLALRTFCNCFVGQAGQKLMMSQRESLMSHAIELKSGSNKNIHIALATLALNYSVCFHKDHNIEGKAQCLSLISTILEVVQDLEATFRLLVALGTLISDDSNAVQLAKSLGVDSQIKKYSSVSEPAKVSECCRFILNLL

log2 fold change, inactive:
PGP (UniProt A6NDG6) -0.05
PFKM isoform 3 (UniProt P08237) -0.005
PLA2G12A (UniProt Q9BZM1) 0.104
PFKFB3 isoform 4 (UniProt Q16875) -0.017
PHB2 (UniProt Q99623) 0.011
PGM2 (UniProt Q96G03) 0.004
PIGBOS1, A0A0B4J2F0 -0.018
PHACTR2 isoform 4 (UniProt O75167) -0.027
PKLR (UniProt P30613) -0.029
PHKB isoform 3 (UniProt Q93100) 0.061
PFDN4 (UniProt Q9NQP4) 0.049
PGM2L1 (UniProt Q6PCE3) 0.015
PGAM1 (UniProt P18669) -0.043
PLCH1 (UniProt Q4KWH8) 0.008
PFKP (UniProt Q01813) -0.012
PHPT1 (UniProt Q9NRX4) -0.079
PHB (UniProt P35232) 0.022
PFKFB4 (UniProt Q16877) -0.029
PIK3R2 (UniProt O00459) -0.032
PFKL isoform 2 (UniProt P17858) -0.002
PFDN2 (UniProt Q9UHV9) -0.016
PHF6 (UniProt Q8IWS0) 0.187
PHF3 (UniProt Q92576) 0.312
PHACTR4 isoform 2 (UniProt Q8IZ21) 0.011
PEX6 (UniProt Q13608) 0.008
PLAA (UniProt Q9Y263) -0.084
PGS1 (UniProt Q32NB8) -0.048
PI4KA (UniProt P42356) 0.083
PITHD1 (UniProt Q9GZP4) 0.047
PLEC (UniProt Q15149) 0.115

compound: CN1CCc2c(c3ccccc3n2Cc2ccc(C(=O)NO)cc2)C1 [Tubastatin A]; assay: as above
Procedure, shortened: as §1

log2 fold change, inactive:
PIGW (UniProt Q7Z7B1) -0.027
PGP (UniProt A6NDG6) -0.022
PFKM isoform 3 (UniProt P08237) -0.03
PLA2G12A (UniProt Q9BZM1) 0.065
PFKFB3 isoform 4 (UniProt Q16875) 0
PHB2 (UniProt Q99623) -0.02
PGM2 (UniProt Q96G03) -0.017
PIGBOS1, A0A0B4J2F0 0.055
PHACTR2 isoform 4 (UniProt O75167) 0.02
PKLR (UniProt P30613) -0.008
PHKB isoform 3 (UniProt Q93100) -0.014
PFDN4 (UniProt Q9NQP4) 0.163
PGM2L1 (UniProt Q6PCE3) -0.029
PHF19 isoform 2 (UniProt Q5T6S3) 0.003
PGAM1 (UniProt P18669) -0.005
PLCH1 (UniProt Q4KWH8) -0.008
PFKP (UniProt Q01813) -0.004
PHPT1 (UniProt Q9NRX4) 0.02
PHB (UniProt P35232) -0.019
PFKFB4 (UniProt Q16877) -0.026
PIK3R2 (UniProt O00459) 0.008
PFKL isoform 2 (UniProt P17858) -0.028
PFDN2 (UniProt Q9UHV9) -0.012
PHF6 (UniProt Q8IWS0) 0.054
PHF3 (UniProt Q92576) 0.003
PHACTR4 isoform 2 (UniProt Q8IZ21) -0.047
PEX6 (UniProt Q13608) 0.021
PLAA (UniProt Q9Y263) 0.12
PGS1 (UniProt Q32NB8) 0.013
PI4KA (UniProt P42356) 0.062
PITHD1 (UniProt Q9GZP4) -0.022
PLEC (UniProt Q15149) 0.13

compound: CNC(=O)C1=CC=CC=C1NC2=NC(=NC=C2Cl)NC3=C(C=C(C=C3)N4CCOCC4)OC; assay: as above
Procedure, shortened: as §1

log2 fold change, inactive:
PIGW (UniProt Q7Z7B1) -0.071
PGP (UniProt A6NDG6) -0.029
PFKM isoform 3 (UniProt P08237) -0.023
PLA2G12A (UniProt Q9BZM1) 0.246
PFKFB3 isoform 4 (UniProt Q16875) -0.038
PHB2 (UniProt Q99623) 0.012
PGM2 (UniProt Q96G03) -0.029
PIGBOS1, A0A0B4J2F0 0.039
PHACTR2 isoform 4 (UniProt O75167) -0.053
PKLR (UniProt P30613) -0.069
PHKB isoform 3 (UniProt Q93100) 0.065
PFDN4 (UniProt Q9NQP4) -0.007
PGM2L1 (UniProt Q6PCE3) -0.008
PHF19 isoform 2 (UniProt Q5T6S3) -0.107
PGAM1 (UniProt P18669) -0.001
PLCH1 (UniProt Q4KWH8) -0.095
PFKP (UniProt Q01813) -0.038
PHPT1 (UniProt Q9NRX4) 0.062
PHB (UniProt P35232) 0.016
PFKFB4 (UniProt Q16877) -0.08
PIK3R2 (UniProt O00459) 0.067
PFKL isoform 2 (UniProt P17858) -0.043
PFDN2 (UniProt Q9UHV9) -0.011
PHF6 (UniProt Q8IWS0) 0.042
PHF3 (UniProt Q92576) -0.129
PHACTR4 isoform 2 (UniProt Q8IZ21) -0.015
PEX6 (UniProt Q13608) 0.069
PLAA (UniProt Q9Y263) -0.014
PGS1 (UniProt Q32NB8) -0.028
PI4KA (UniProt P42356) -0.001
PITHD1 (UniProt Q9GZP4) -0.035
PLEC (UniProt Q15149) 0.041

— the supplement of paper PMC10849652
